Assay [1] concerns the target eIF4A3 (human (endogenous in MCF7)) (UniProt P38919). The assay can be described thus: proximity ligation.
Assay [2] has as its target T1, UPF1 (Up-frameshift Protein 1) (human (endogenous in MCF7)) (UniProt Q92900).
T1 sequence: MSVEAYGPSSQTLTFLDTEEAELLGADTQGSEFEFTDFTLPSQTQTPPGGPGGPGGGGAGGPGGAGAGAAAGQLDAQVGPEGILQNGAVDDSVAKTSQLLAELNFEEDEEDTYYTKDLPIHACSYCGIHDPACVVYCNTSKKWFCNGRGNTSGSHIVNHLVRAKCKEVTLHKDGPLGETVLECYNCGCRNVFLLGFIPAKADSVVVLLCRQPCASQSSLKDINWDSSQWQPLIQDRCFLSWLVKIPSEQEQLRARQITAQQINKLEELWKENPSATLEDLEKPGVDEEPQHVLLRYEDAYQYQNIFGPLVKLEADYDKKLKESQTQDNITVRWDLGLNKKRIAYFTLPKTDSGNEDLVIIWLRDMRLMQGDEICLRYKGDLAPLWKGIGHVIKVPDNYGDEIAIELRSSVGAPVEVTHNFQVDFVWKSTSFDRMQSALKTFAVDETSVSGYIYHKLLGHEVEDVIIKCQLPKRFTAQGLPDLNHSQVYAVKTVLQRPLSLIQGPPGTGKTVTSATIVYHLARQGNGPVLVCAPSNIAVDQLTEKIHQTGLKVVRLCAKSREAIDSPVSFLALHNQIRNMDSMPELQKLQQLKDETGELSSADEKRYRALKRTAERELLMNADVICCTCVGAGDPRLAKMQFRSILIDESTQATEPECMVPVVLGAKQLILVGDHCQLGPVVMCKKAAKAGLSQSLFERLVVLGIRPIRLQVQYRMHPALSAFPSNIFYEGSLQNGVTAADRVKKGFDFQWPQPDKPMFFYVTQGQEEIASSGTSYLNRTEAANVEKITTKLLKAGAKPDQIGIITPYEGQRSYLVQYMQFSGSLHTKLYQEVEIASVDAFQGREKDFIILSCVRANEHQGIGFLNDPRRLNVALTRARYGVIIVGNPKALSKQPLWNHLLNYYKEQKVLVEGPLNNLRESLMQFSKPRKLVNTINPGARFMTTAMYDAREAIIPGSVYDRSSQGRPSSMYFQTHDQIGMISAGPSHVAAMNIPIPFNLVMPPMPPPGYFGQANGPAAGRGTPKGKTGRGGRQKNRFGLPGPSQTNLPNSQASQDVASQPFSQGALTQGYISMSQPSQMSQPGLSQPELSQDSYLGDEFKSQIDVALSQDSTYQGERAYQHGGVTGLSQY
The assay can be described thus: co-IP.

The chains behind the UniProt entries cited, without tags or fusion partners.
UniProt P38919: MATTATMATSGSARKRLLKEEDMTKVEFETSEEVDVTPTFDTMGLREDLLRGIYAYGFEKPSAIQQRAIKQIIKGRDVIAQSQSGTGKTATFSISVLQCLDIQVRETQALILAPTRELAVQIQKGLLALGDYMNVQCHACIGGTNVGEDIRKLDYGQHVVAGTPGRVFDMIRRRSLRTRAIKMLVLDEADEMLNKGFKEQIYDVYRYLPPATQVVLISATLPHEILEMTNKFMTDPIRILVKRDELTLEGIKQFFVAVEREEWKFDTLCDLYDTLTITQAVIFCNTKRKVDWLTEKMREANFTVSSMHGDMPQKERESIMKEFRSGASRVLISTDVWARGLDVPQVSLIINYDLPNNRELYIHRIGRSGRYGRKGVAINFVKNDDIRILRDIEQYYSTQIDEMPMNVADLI

Assay [3] deals with eIF4A3 (human (endogenous in MCF7)) (UniProt P38919). In words: co-IP.

These are yes or no findings as the source states them, for the method shown. Binding seen in cells or lysates may run through a third protein. Some entries that bind do so weakly or less than the wild type.

Regarding “FRG1 (FSHD Region Gene 1) (from UniProt Q14331 1-258)”, the binding entry in assay [1] and in assay [2] was “binds” each time.
Turning to “FRG1, ectopically expressed (PLX304_FRG1) (from UniProt Q14331 1-258)”, the binding result in assay [3] and in assay [2] was “binds” each time.
